Test results: PubChem BioAssay AID504648 (National Center for Advancing Translational Sciences (NCATS), 2011)
Among all 390,000 compounds or so, about 610 (0.16%) were called active. This list was built around the results that the source calls inconclusive (neither active nor inactive); the mix of calls is not that of the screen. Calls come from the whole dose curve; as a rule, active = well fitted inhibition curve with a large enough effect; inconclusive = small, poorly fitted or top-dose-only effect, or effect the other way, or another doubt; inactive = no such curve, though single readings can be large or run the other way. Potencies beside an inconclusive call are fits to weak or partial responses and may not hold up.
% is set by controls: 0 for no effect and ±100 for the full control effect; potency is the fitted concentration of half-maximal effect.

Experiment: Nrf2 qHTS screen for inhibitors: counterscreen for cytotoxicity
Conditions: A549 ARE-Fluc cells, CellTiter-Fluor viability, 18-24 h; activity change, negative = cytotoxicity: at 46 µM (top of the series)
Summary of the method: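 A549 ARE-Fluc cells in 5% FBS OPTI-MEM, 5000 cells/well, rested 2 h then exposed to compounds in concentration-response for 18-24 h at 37 °C. Viability by CellTiter-Fluor fluorescence (Ex 405/Em 525) after 30 min; luciferase luminescence (BugLite, 15 min, RT) read afterwards.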
In the case of `COc1ccc(C2=NOC(C(=O)NCc3ccco3)C2)cc1OC` (configuration not stated), the Potency is reported as inconclusive: 3.66 µM [falling, partial curve, poor fit].
For `CCCCc1c(C)nc2c(-c3ccc(OC)cc3)c(C)[nH]n2c1=O`, the “activity change, negative = cytotoxicity” value was inactive: -15.7%.
For `CN(Cc1ccccc1)CC(O)COc1ccc(CNCc2nccn2C)cc1` (configuration not stated), the Potency was inconclusive: 14.6 µM [falling, partial curve].
With `Cc1ccc(OCC(=O)Nc2ccc3nc(SCC(=O)N4CCOCC4)sc3c2)cc1` the “activity change, negative = cytotoxicity” value was inactive: -13.6%.
For `Cc1[nH]n(-c2ccc(Br)cc2)c(=O)c1/C=N/NC(=O)c1ccccc1`, the Potency was inconclusive: 13 µM [falling, partial curve, poor fit].
For `CC(C)(C)N=C1NC(=NC(C)(C)C)c2ccccc21`, the Potency was inconclusive: 29.1 µM [falling, single point].
In the case of `O=C1/C(=C/c2ccncc2)SC(=S)N1C1CCS(=O)(=O)C1` (configuration not stated), the Potency is reported as inconclusive: 29.1 µM [falling, single point].
In the case of `COc1ccc(Nc2ccc(S(=O)(=O)N3CCCCCC3)cc2[N+](=O)[O-])cc1`, the Potency is reported as inconclusive: 32.6 µM [falling, partial curve, poor fit].
With `O=C(NCCCC1CCCC1)C1CCC(=O)N(Cc2ccc(Cl)cc2)C1` (configuration not stated) the Potency was inconclusive: 32.6 µM [falling, partial curve, poor fit].
For `O=C(CCc1nnc2ccc(NCc3ccco3)nn12)Nc1cccc(F)c1`, the Potency was inconclusive: 20.6 µM [falling, partial curve, poor fit].
For `Cc1ccc(OCCCCNC2CCCC(C)C2C)c(C)c1` (configuration not stated), the Potency was inconclusive: 20.6 µM [falling, single point].
In the case of `C#CCOCCOCCOCCNc1nc(N2CCN(C(=O)CCCCCCCCCCNC(=O)Cn3cc(CCCCCN)nn3)CC2)nc(N2CCN(C(=O)CCCCCCCCCCNC(=O)[C@@H](CCSC)n3cc(CCO)nn3)CC2)n1`, the Potency is reported as inconclusive: 20.6 µM [falling, single point].
With `Cc1ccc(N(C(=O)c2csnn2)C(C(=O)NCc2ccccc2)c2cccnc2)cc1` (configuration not stated) the “activity change, negative = cytotoxicity” value was inactive: 3.21%.
In the case of `Cc1ccc(Nc2nc(N)c([N+](=O)[O-])c(NCCO)n2)cc1C`, the “activity change, negative = cytotoxicity” value is reported as inactive: -8.44%.
With `O=C(Nc1cccc(C(F)(F)F)c1)C1CCCN1S(=O)(=O)c1cccc2nsnc12` (configuration not stated) the “activity change, negative = cytotoxicity” value was inactive: -9.66%.
With `Cc1cc(Nc2ccc(Cl)cc2)nc(NCc2ccccc2)n1` the Potency was inconclusive: 29.1 µM [falling, single point].
In the case of `Cc1ccc(-n2cccc2/C=C2\C(=N)N3N=C(c4ccco4)SC3=NC2=O)cc1`, the Potency is reported as inconclusive: 20.6 µM [falling, partial curve, poor fit].
With `CCOC(=O)c1c(C)[nH]c(C)c1S(=O)(=O)N1CCN(c2cccc(C(F)(F)F)c2)CC1` the “activity change, negative = cytotoxicity” value was inactive: -4.11%.
In the case of `COC(=O)c1ccc(Oc2cc(C)nc(NCc3ccccc3)n2)cc1`, the “activity change, negative = cytotoxicity” value is reported as inactive: -9.8%.
For `N#C/C(=C\C1=C(N2CCOCC2)C(=C\c2ccccc2)/CC1)C(=O)Nc1ccccc1F`, the Potency was inconclusive: 5.17 µM [falling, full curve].
In the case of `CCN1CCN(C(=O)C2=CC(c3ccc(OC)cc3)=NS(=O)(=O)N2C)CC1`, the Potency is reported as inconclusive: 11.6 µM [falling, partial curve, poor fit].
In the case of `CCCn1c(N2CCN(S(=O)(=O)Cc3ccccc3)CC2)nc2ccccc21`, the Potency is reported as inconclusive: 32.6 µM [falling, partial curve, poor fit].
For `CN(C(=O)c1cccc(NC(=O)Cc2cccc(NC(=O)C3CCCN(C(=O)C4CCCC4)C3)c2)c1)C1CCC1` (configuration not stated), the “activity change, negative = cytotoxicity” value was inactive: -3.2%.
In the case of `CC(CC(=O)Nc1ccc2c(c1)OCCO2)c1ccccc1` (configuration not stated), the “activity change, negative = cytotoxicity” value is reported as inactive: -2.55%.
For `O=C(NC(Cc1c[nH]c2ccccc12)C(=O)Nc1ccc(OC(F)(F)F)cc1)c1cccs1` (configuration not stated), the Potency was active: 23.1 µM.
With `Cc1cccc(CS(=O)(=O)c2ncc(Cl)c(C(=O)Nc3c(C)cccc3C)n2)c1` the Potency was inconclusive: 29.1 µM [falling, single point].
In the case of `Cn1cccc1C(=O)NC1CCCCCC1`, the “activity change, negative = cytotoxicity” value is reported as inactive: 1.35%.
In the case of `CCCN1C(=O)C2(c3ccccc31)c1c(oc3ccc(F)cc3c1=O)C(=O)N2CCCOC(C)C` (configuration not stated), the “activity change, negative = cytotoxicity” value is reported as inactive: 3.66%.
For `CCOc1ccc(Br)cc1S(=O)(=O)Nc1ccc(Cl)c(S(=O)(=O)N(CC)c2ccccc2)c1`, the Potency was inconclusive: 32.6 µM [falling, partial curve, poor fit].
For `Cc1ccc(OC(=O)N2CCOCC2)cc1`, the Potency was inconclusive: 7.31 µM [activator, partial curve, poor fit].
In the case of `COC(=O)[C@H](CCSC)NC(=O)N1CCN(c2cccc(C(F)(F)F)c2)CC1`, the Potency is reported as inconclusive: 32.6 µM [falling, partial curve, poor fit].
With `Cc1nn(C)c(C(=O)Nc2ccn(C34CC5CC(CC(C5)C3)C4)n2)c1[N+](=O)[O-]` the Potency was inconclusive: 29.1 µM [falling, single point].
For `Oc1ccc(N2CCN(C(c3ccncc3)c3nnnn3C3CCCC3)CC2)cc1` (configuration not stated), the “activity change, negative = cytotoxicity” value was inactive: -1.13%.
With `C=CCc1cccc(/C=N/NC(=O)CCC(=O)Nc2ccc(F)cc2)c1O` the “activity change, negative = cytotoxicity” value was inactive: 7.12%.
For `CCOC(=O)COc1ccc2c(C#N)c3ccccn3c2c1`, the Potency was inconclusive: 23.1 µM [activator, partial curve].
For `CCOc1cccc(CC(=O)Nc2ccc3nc(N4CCCCC4)cc(C)c3c2)c1OCC`, the Potency was inconclusive: 16.4 µM [falling, partial curve, poor fit].
In the case of `CCOC(=O)c1cnc(-n2nc(C)cc2C)nc1NNc1nc(-c2ccccc2)cc(-c2ccccc2)n1`, the Potency is reported as inconclusive: 20.6 µM [falling, single point].
In the case of `CCN(C(=O)CN(C)S(=O)(=O)c1ccc2c(c1)c(=O)n(C)c(=O)n2C)c1ccc(OC)cc1`, the “activity change, negative = cytotoxicity” value is reported as inactive: -2.97%.
For `O=[N+]([O-])c1ccc(S(=O)(=O)c2cccc(C(F)(F)F)c2)nc1`, the Potency was inconclusive: 29.1 µM [falling, single point].
For `O=C(Nc1ccc(Cl)cc1)Nc1nnc(-c2ccncc2)s1`, the Potency was inconclusive: 20.6 µM [falling, single point].
In the case of `CCN(CCCCN1C(=O)c2ccccc2C1=O)c1ccc2c(c1)C(=O)N(C)C2=O`, the Potency is reported as inconclusive: 3.66 µM [activator, partial curve].
In the case of `COc1ccc(-c2[nH]c(-c3cc(OC)c4c(c3)OCO4)nc2-c2ccccc2)cc1`, the Potency is reported as inconclusive: 23.1 µM [falling, partial curve, poor fit].
